# Screening data

Data taken from PubChem BioAssay AID504749, deposited by NCATS (2011).

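A panel of P. falciparum strains inside erythrocytes is exposed to compounds for three days, then a DNA-binding dye reports the amount of parasite DNA. Each compound was titrated across a series from about 0.000037 to 29 µM. The number is the fitted AC50, the concentration giving a half-maximal change in signal; a lower value means higher potency, whether the curve shows a decrease or an increase. Calls follow the curve class and fit quality: every row here is inconclusive, covering signal-raising curves and weak, poorly fitted, partial or highest-dose-only inhibition curves.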

Values are in nM. Every entry below has the call inconclusive. Only part of the assay is shown, chiefly results filed as inconclusive. A potency from a partial, single-point or poor curve is only a rough figure. The first word of each remark tells which way the curve ran; it can be opposite to the aim of the assay.

| # | compound | condition | potency (nM) | remark |
|---|---|---|---|---|
| 1 | `COc1ccc(CCN(C)CCCC(C#N)(c2ccc(OC)c(OC)c2)C(C)C)cc1OC` (stereo not shown) | CP266 | 10.7 | activator |
| 2 | `COc1ccc(CCN(C)CCCC(C#N)(c2ccc(OC)c(OC)c2)C(C)C)cc1OC` (stereo not shown) | CP194 | 1694 | inhibitor, partial curve, poor fit |
| 3 | `COc1ccc(CCN(C)CCCC(C#N)(c2ccc(OC)c(OC)c2)C(C)C)cc1OC` (stereo not shown) | CP237 | 3548 | inhibitor, single point |
| 4 | `COc1ccc(CCN(C)CCCC(C#N)(c2ccc(OC)c(OC)c2)C(C)C)cc1OC` (stereo not shown) | P93_24 | 2239 | inhibitor, single point |
| 5 | `COc1ccc(CCN(C)CCCC(C#N)(c2ccc(OC)c(OC)c2)C(C)C)cc1OC` (stereo not shown) | Dd2 | 2239 | inhibitor, partial curve |
| 6 | `COc1ccc(CCN(C)CCCC(C#N)(c2ccc(OC)c(OC)c2)C(C)C)cc1OC` (stereo not shown) | ICS | 3981 | inhibitor, single point |
| 7 | `COc1ccc(CCN(C)CCCC(C#N)(c2ccc(OC)c(OC)c2)C(C)C)cc1OC` (stereo not shown) | CP260 | 2239 | inhibitor, single point |
| 8 | `COc1ccc(CCN(C)CCCC(C#N)(c2ccc(OC)c(OC)c2)C(C)C)cc1OC` (stereo not shown) | CP211 | 1901 | inhibitor, single point |
| 9 | `COc1ccc(CCN(C)CCCC(C#N)(c2ccc(OC)c(OC)c2)C(C)C)cc1OC` (stereo not shown) | CP329 | 1510 | inhibitor, partial curve |
| 10 | `COc1ccc(CCN(C)CCCC(C#N)(c2ccc(OC)c(OC)c2)C(C)C)cc1OC` (stereo not shown) | P94_40 | 1995 | inhibitor, single point |
| 11 | `COc1ccc(CCN(C)CCCC(C#N)(c2ccc(OC)c(OC)c2)C(C)C)cc1OC` (stereo not shown) | CP203 | 4776 | inhibitor, single point |
| 12 | `COc1ccc(CCN(C)CCCC(C#N)(c2ccc(OC)c(OC)c2)C(C)C)cc1OC` (stereo not shown) | W2 | 1346 | inhibitor, partial curve |
| 13 | `COc1ccc(CCN(C)CCCC(C#N)(c2ccc(OC)c(OC)c2)C(C)C)cc1OC` (stereo not shown) | CP315 | 1510 | inhibitor, partial curve, poor fit |
| 14 | `COc1ccc(CCN(C)CCCC(C#N)(c2ccc(OC)c(OC)c2)C(C)C)cc1OC` (stereo not shown) | DIV30 | 1694 | inhibitor, partial curve, poor fit |
| 15 | `COc1ccc(CCN(C)CCCC(C#N)(c2ccc(OC)c(OC)c2)C(C)C)cc1OC` (stereo not shown) | PC26 | 4256 | inhibitor, single point |
| 16 | `CC(C)(Sc1cc(C(C)(C)C)c(O)c(C(C)(C)C)c1)Sc1cc(C(C)(C)C)c(O)c(C(C)(C)C)c1` | HB3 | 2512 | inhibitor, partial curve |
| 17 | `CC(C)(Sc1cc(C(C)(C)C)c(O)c(C(C)(C)C)c1)Sc1cc(C(C)(C)C)c(O)c(C(C)(C)C)c1` | CP237 | 4467 | inhibitor, single point |
| 18 | `CC(C)(Sc1cc(C(C)(C)C)c(O)c(C(C)(C)C)c1)Sc1cc(C(C)(C)C)c(O)c(C(C)(C)C)c1` | CP315 | 1438 | inhibitor, single point |
| 19 | `CC(C)(Sc1cc(C(C)(C)C)c(O)c(C(C)(C)C)c1)Sc1cc(C(C)(C)C)c(O)c(C(C)(C)C)c1` | CP262 | 0.3 | activator |
| 20 | `CC(C)(Sc1cc(C(C)(C)C)c(O)c(C(C)(C)C)c1)Sc1cc(C(C)(C)C)c(O)c(C(C)(C)C)c1` | 7G8 | 3981 | inhibitor, partial curve, poor fit |
| 21 | `c1cc2c(c(NC3=NCCN3)c1)CCCC2` | CP203 | 19011 | inhibitor, single point |
| 22 | `c1cc2c(c(NC3=NCCN3)c1)CCCC2` | GB4 | 10690 | inhibitor, partial curve |
| 23 | `c1cc2c(c(NC3=NCCN3)c1)CCCC2` | PC26 | 19011 | inhibitor, single point |
| 24 | `c1cc2c(c(NC3=NCCN3)c1)CCCC2` | CP305 | 16944 | inhibitor, single point |
| 25 | `c1cc2c(c(NC3=NCCN3)c1)CCCC2` | PC49 | 12589 | inhibitor, single point |
| 26 | `c1cc2c(c(NC3=NCCN3)c1)CCCC2` | CP297 | 9528 | inhibitor, partial curve, poor fit |
| 27 | `c1cc2c(c(NC3=NCCN3)c1)CCCC2` | CP192 | 21331 | inhibitor, single point |
| 28 | `c1cc2c(c(NC3=NCCN3)c1)CCCC2` | CP268 | 13459 | inhibitor, single point |
| 29 | `c1cc2c(c(NC3=NCCN3)c1)CCCC2` | PC15 | 17782 | inhibitor, single point |
| 30 | `c1cc2c(c(NC3=NCCN3)c1)CCCC2` | DIV17 | 19011 | inhibitor, single point |
| 31 | `c1cc2c(c(NC3=NCCN3)c1)CCCC2` | CP215 | 15101 | inhibitor, single point |
| 32 | `c1cc2c(c(NC3=NCCN3)c1)CCCC2` | CP269 | 11995 | inhibitor, single point |
| 33 | `c1cc2c(c(NC3=NCCN3)c1)CCCC2` | CP211 | 16944 | inhibitor, single point |
| 34 | `c1cc2c(c(NC3=NCCN3)c1)CCCC2` | CP194 | 16944 | inhibitor, single point |
| 35 | `c1cc2c(c(NC3=NCCN3)c1)CCCC2` | CP201 | 19011 | inhibitor, single point |
| 36 | `c1cc2c(c(NC3=NCCN3)c1)CCCC2` | CP315 | 19011 | inhibitor, single point |
| 37 | `c1cc2c(c(NC3=NCCN3)c1)CCCC2` | 7G8 | 11220 | inhibitor, single point |
| 38 | `c1cc2c(c(NC3=NCCN3)c1)CCCC2` | DIV30 | 16944 | inhibitor, single point |
| 39 | `c1cc2c(c(NC3=NCCN3)c1)CCCC2` | CP329 | 19011 | inhibitor, single point |
| 40 | `c1cc2c(c(NC3=NCCN3)c1)CCCC2` | ICS | 11220 | inhibitor, single point |
| 41 | `c1cc2c(c(NC3=NCCN3)c1)CCCC2` | CP291 | 13459 | inhibitor, partial curve |
| 42 | `CN1CCc2cccc3c2[C@H]1Cc1ccc(O)c(O)c1-3` | CP315 | 19011 | inhibitor, single point |
| 43 | `CN1CCc2cccc3c2[C@H]1Cc1ccc(O)c(O)c1-3` | C2A | 11220 | inhibitor, single point |
| 44 | `CN1CCc2cccc3c2[C@H]1Cc1ccc(O)c(O)c1-3` | ATS189 | 11220 | inhibitor, single point |
| 45 | `CN1CCc2cccc3c2[C@H]1Cc1ccc(O)c(O)c1-3` | CP192 | 11995 | inhibitor, single point |
| 46 | `CN1CCc2cccc3c2[C@H]1Cc1ccc(O)c(O)c1-3` | CP305 | 15101 | inhibitor, single point |
| 47 | `CN1CCc2cccc3c2[C@H]1Cc1ccc(O)c(O)c1-3` | CP215 | 16944 | inhibitor, single point |
| 48 | `CN1CCc2cccc3c2[C@H]1Cc1ccc(O)c(O)c1-3` | CP203 | 19011 | inhibitor, single point |
| 49 | `CN1CCc2cccc3c2[C@H]1Cc1ccc(O)c(O)c1-3` | CP268 | 11995 | inhibitor, single point |
| 50 | `CN1CCc2cccc3c2[C@H]1Cc1ccc(O)c(O)c1-3` | CP252 | 17782 | inhibitor, single point |
| 51 | `CN1CCc2cccc3c2[C@H]1Cc1ccc(O)c(O)c1-3` | DIV30 | 19011 | inhibitor, single point |
| 52 | `CN1CCc2cccc3c2[C@H]1Cc1ccc(O)c(O)c1-3` | SC27B | 11220 | inhibitor, single point |
| 53 | `CN1CCc2cccc3c2[C@H]1Cc1ccc(O)c(O)c1-3` | CP194 | 19011 | inhibitor, single point |
| 54 | `CN1CCc2cccc3c2[C@H]1Cc1ccc(O)c(O)c1-3` | CP265 | 11220 | inhibitor, single point |
| 55 | `CN1CCc2cccc3c2[C@H]1Cc1ccc(O)c(O)c1-3` | ECU | 398.1 | inhibitor, single point |
| 56 | `CN1CCc2cccc3c2[C@H]1Cc1ccc(O)c(O)c1-3` | CP262 | 19011 | inhibitor, single point |
| 57 | `CN1CCc2cccc3c2[C@H]1Cc1ccc(O)c(O)c1-3` | CP238 | 10000 | inhibitor, single point |
| 58 | `CN1CCc2cccc3c2[C@H]1Cc1ccc(O)c(O)c1-3` | FAB9 | 11220 | inhibitor, single point |
| 59 | `CN1CCc2cccc3c2[C@H]1Cc1ccc(O)c(O)c1-3` | CP256 | 11220 | inhibitor, single point |
| 60 | `CN1CCc2cccc3c2[C@H]1Cc1ccc(O)c(O)c1-3` | CP201 | 19011 | inhibitor, single point |
| 61 | `CN1CCc2cccc3c2[C@H]1Cc1ccc(O)c(O)c1-3` | DFO2036 | 12589 | inhibitor, single point |
| 62 | `CN1CCc2cccc3c2[C@H]1Cc1ccc(O)c(O)c1-3` | CP211 | 15101 | inhibitor, single point |
| 63 | `CN1CCc2cccc3c2[C@H]1Cc1ccc(O)c(O)c1-3` | CP247 | 11220 | inhibitor, single point |
| 64 | `CN1CCc2cccc3c2[C@H]1Cc1ccc(O)c(O)c1-3` | CP291 | 16944 | inhibitor, single point |
| 65 | `CN1CCc2cccc3c2[C@H]1Cc1ccc(O)c(O)c1-3` | CP297 | 16944 | inhibitor, single point |
| 66 | `CN1CCc2cccc3c2[C@H]1Cc1ccc(O)c(O)c1-3` | CP191 | 17782 | inhibitor, single point |
| 67 | `CN1CCc2cccc3c2[C@H]1Cc1ccc(O)c(O)c1-3` | CP217 | 11220 | inhibitor, single point |
| 68 | `CN1CCc2cccc3c2[C@H]1Cc1ccc(O)c(O)c1-3` | CP185 | 11220 | inhibitor, single point |
| 69 | `CN1CCc2cccc3c2[C@H]1Cc1ccc(O)c(O)c1-3` | PC49 | 12589 | inhibitor, single point |
| 70 | `CN1CCc2cccc3c2[C@H]1Cc1ccc(O)c(O)c1-3` | CP325 | 16944 | inhibitor, single point |

For reference, 8 entries once more:

* CN1CCc2cccc3c2[C@H]1Cc1ccc(O)c(O)c1-3 [CP252] : potency 17782 nM (inhibitor, single point)
* c1cc2c(c(NC3=NCCN3)c1)CCCC2 [CP297] : potency 9528 nM (inhibitor, partial curve, poor fit)
* c1cc2c(c(NC3=NCCN3)c1)CCCC2 [DIV17] : potency 19011 nM (inhibitor, single point)
* c1cc2c(c(NC3=NCCN3)c1)CCCC2 [CP269] : potency 11995 nM (inhibitor, single point)
* CN1CCc2cccc3c2[C@H]1Cc1ccc(O)c(O)c1-3 [CP191] : potency 17782 nM (inhibitor, single point)
* CN1CCc2cccc3c2[C@H]1Cc1ccc(O)c(O)c1-3 [DFO2036] : potency 12589 nM (inhibitor, single point)
* CN1CCc2cccc3c2[C@H]1Cc1ccc(O)c(O)c1-3 [SC27B] : potency 11220 nM (inhibitor, single point)
* COc1ccc(CCN(C)CCCC(C#N)(c2ccc(OC)c(OC)c2)C(C)C)cc1OC (stereo not shown) [P94_40] : potency 1995 nM (inhibitor, single point)